± gives the standard deviation. The list shows a part of the results, in another mix than the full data. Many entries were measured with a wide error.

The test system of assay [1] is MILI (PIWIL2) piRISC loaded with piRNA #1 (26 nt). Put plainly: pre-steady-state target cleavage rate (min^-1); higher = faster piRNA-guided slicing of the target. The settings on record: guide: piRNA #1 5'p-UGAGGUAGUAGGUUGUAUAGUAUCCA; auxiliary factor: 500 nM mouse GTSF1. Put shortly:
(§1)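 In HEPES–potassium acetate buffer at 33 °C, […] transcribed, DNA-blocked target RNA library was mixed with 1 nM active affinity-purified piRISC carrying one synthetic guide, with or without 500 nM GTSF1 partner protein, for 0–8 or 0–960 min. Uncleaved targets were sequenced and normalised to depth and to weakly complementary targets; three trials were pooled and k3 was capped at 0.0001 min^-1. The pre-steady-state cleavage rate followed from a burst-and-steady-state fit.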

For assay [2], the system named is MIWI (PIWIL1) piRISC loaded with piRNA #1 (30 nt). Described as above. The conditions noted are these: guide: piRNA #1 5'p-UGAGGUAGUAGGUUGUAUAGUAUCCAGAGG; auxiliary factor: 500 nM mouse GTSF1. In outline:
as §1

The test system of assay [3] is EfPiwi piRISC loaded with piRNA #1 (26 nt). Put plainly: pre-steady-state target cleavage rate (min^-1); guide: piRNA #1 5'p-UGAGGUAGUAGGUUGUAUAGUAUCCA; MIWI and MILI are mouse PIWI proteins and EfPiwi is from a freshwater sponge; tags in brackets are library labels; higher = faster piRNA-guided slicing of the target. The conditions noted are these: auxiliary factor: 500 nM Ephydatia muelleri Gtsf1. Put shortly: as §1

As to GGAGACCUAUGAUAUCAACCUACUAGCCUCA, the “pre-steady-state target cleavage rate” value in assay [1] is 0.0019 ± 0.0035; in assay [2], 0.000173 ± 0.014; in assay [3] it was 0.000164 ± 0.017.

Regarding GGAGACCUAUGAAUACAGACCUACUACCUCA, the “pre-steady-state target cleavage rate” value is 0.0006 ± 0.012 in assay [1], 0.000221 ± 0.014 in assay [2] and 0.000554 ± 0.0089 in assay [3].

Take GGAGACCUAUGAUAACAUCCUACUACCACA: the results for the “pre-steady-state target cleavage rate” value in assay [1], in assay [2] and in assay [3] were 0.00266 ± 0.0037, 0.000651 ± 0.0082 and 0.000246 ± 0.018, respectively.

In the case of GGAGACCUAUGAUAACAACCUACAACCUGA, the “pre-steady-state target cleavage rate” value is 0.00114 ± 0.0046 in assay [1], 0.000123 ± 0.014 in assay [2] and 0.000735 ± 0.013 in assay [3].

Regarding GGAGACCUAUGUAUUCAACCUAGUACCUCA, the “pre-steady-state target cleavage rate” value stood at 0.00409 ± 0.0042 in assay [1], 0.00113 ± 0.0053 in assay [2] and 0.000349 ± 0.0067 in assay [3].

As to GGAGACCUAUGAUAACUACCUACUACCUCA, the “pre-steady-state target cleavage rate” value in assay [1] is 0.00161 ± 0.0031; in assay [2] it was 0.000209 ± 0.01; in assay [3] it was 0.000993 ± 0.0052.

With GGAGACCAUACUAUUCAACCUACUACCUGA, the entries for the “pre-steady-state target cleavage rate” value in assay [1], in assay [2] and in assay [3] were 0.114 ± 0.018, 0.64 ± 0.075 and 0.00313 ± 0.0026, respectively.

GGAGACCUAACUAUACAACCGACUACCUCA: the “pre-steady-state target cleavage rate” value in assay [1] was 0.00192 ± 0.0097; in assay [2] it was 0.00276 ± 0.0052; in assay [3], 0.00295 ± 0.005.

With GGAGACCUAUGAUAUGUUGGUACUACCACA, the “pre-steady-state target cleavage rate” value in assay [1] came out at 0.000341 ± 0.013; in assay [2] it was 0.000543 ± 0.0073; in assay [3] it was 0.000439 ± 0.0073.

Turning to GGAGACCUAUGAUAUGUUGCAACUACGUCA, the figures for the “pre-steady-state target cleavage rate” value in assay [1], in assay [2] and in assay [3] were 0.000619 ± 0.009, 0.000861 ± 0.0056 and 0.000569 ± 0.0062, respectively.

GGAGUGGAUACUAUACAACCUACUUCCACA: the “pre-steady-state target cleavage rate” value in assay [1] was 0.000457 ± 0.0054; in assay [2] it was 0.000478 ± 0.0076; in assay [3] it was 0.00294 ± 0.0024.

On to GGAGACCUAUGAUAACAACCAACUACCACA, for which the “pre-steady-state target cleavage rate” value worked out at 0.00177 ± 0.004 in assay [1], 0.000207 ± 0.011 in assay [2] and 0.000411 ± 0.029 in assay [3].

Turning to GGAGACCUAUGAUAUGUUGCUACUAACCUCA, the figures for the “pre-steady-state target cleavage rate” value in assay [1], in assay [2] and in assay [3] were 0.000404 ± 0.011, 0.000563 ± 0.0067 and 0.000573 ± 0.0052, respectively.

Regarding GGAGACCUAUGAUAUGAUCGUACUACCUCA, the entries for the “pre-steady-state target cleavage rate” value in assay [1], in assay [2] and in assay [3] were 0.000395 ± 0.012, 0.000568 ± 0.01 and 0.00188 ± 0.0046, respectively.

As for GGAGACCUAUGUAUACAACCUAGUAGCUCA, the “pre-steady-state target cleavage rate” value was 0.00126 ± 0.0043 in assay [1], 0.00126 ± 0.0039 in assay [2] and 0.00193 ± 0.0069 in assay [3].

In the case of GGAGACCUAUGUAUAGUACCUACUACCUCA, the figures for the “pre-steady-state target cleavage rate” value in assay [1], in assay [2] and in assay [3] were 0.013 ± 0.0027, 0.000688 ± 0.0068 and 0.00121 ± 0.0048, respectively.

For GGAGACCUAUCUAUACAAACCUACUACCUCA, the “pre-steady-state target cleavage rate” value worked out at 0.00125 ± 0.0054 in assay [1], 0.000247 ± 0.012 in assay [2] and 0.00214 ± 0.0035 in assay [3].

As for GGAGACCUAUGAUAACAACCUACUACGAGA, the “pre-steady-state target cleavage rate” value in assay [1] amounted to 0.000688 ± 0.009; in assay [2] it was 0.000421 ± 0.017; in assay [3], 0.000837 ± 0.008.

Take GGAGACCUAUGAUAUGUUGCGUACUACCUCA: the “pre-steady-state target cleavage rate” value is 0.000455 ± 0.012 in assay [1], 0.000969 ± 0.0047 in assay [2] and 0.000334 ± 0.01 in assay [3].

As for GGAGACCUAACUAUACAACCAUACUACCUCA, the “pre-steady-state target cleavage rate” value in assay [1] stood at 0.00338 ± 0.0065; in assay [2] it was 0.000788 ± 0.013; in assay [3] it was 0.00116 ± 0.0069.

Take GGAGACCUAUGAUAAGAACCUACUACGUCA: the “pre-steady-state target cleavage rate” value in assay [1] stood at 0.000108 ± 0.022; in assay [2] it was 0.000124 ± 0.015; in assay [3] it was 0.000101 ± 0.026.

GGAGACCUAUGAUAUGUUGGUACAUCCUCA: the “pre-steady-state target cleavage rate” value was found to be 0.000473 ± 0.011 in assay [1], 0.000596 ± 0.0075 in assay [2] and 0.000134 ± 0.014 in assay [3].

On to GGAGACCUAUGAAUACAACCUACUGCCUCA, for which the figures for the “pre-steady-state target cleavage rate” value in assay [1], in assay [2] and in assay [3] were 0.0052 ± 0.0029, 0.000238 ± 0.0081 and 0.00368 ± 0.0037, respectively.

In the case of GGAGACCUAUGAUAUGAAGCAACUACCUCA, the “pre-steady-state target cleavage rate” value in assay [1] came out at 0.000484 ± 0.018; in assay [2] it was 0.000492 ± 0.015; in assay [3], 0.000783 ± 0.0073.

GGAGACCUAUGAUAACAACCUACUACUUCA: the figures for the “pre-steady-state target cleavage rate” value in assay [1], in assay [2] and in assay [3] were 0.00299 ± 0.0028, 0.00172 ± 0.0057 and 0.000788 ± 0.0059, respectively.

With “GGAGACGAUACUAUACAACCUACUUGGAGA [g7:g24:cont:t1A]”, the “pre-steady-state target cleavage rate” value in assay [1] is 0.00154 ± 0.005; in assay [2] it was 0.00268 ± 0.005; in assay [3], 0.00429 ± 0.0022.

Regarding GGAGACCUAUGUAUACAACCCUACUACCUCA, the figures for the “pre-steady-state target cleavage rate” value in assay [1], in assay [2] and in assay [3] were 0.00107 ± 0.0068, 0.000194 ± 0.018 and 0.000702 ± 0.0094, respectively.

For the sequence GGAGACCUAUGAUAUGUUCCGACUACCUCA, the results for the “pre-steady-state target cleavage rate” value in assay [1], in assay [2] and in assay [3] were 0.000239 ± 0.015, 0.000378 ± 0.0092 and 0.00138 ± 0.0065, respectively.

(Values after the supplement of paper PMC10338343.)
